Laboratory results published in paper PMC7862507, “Adrenomedullin for steroid-resistant ulcerative colitis: a randomized, double-blind, placebo-controlled phase-2a clinical trial” (Journal of Gastroenterology, 2020).

Test system: C4
Assay: Complement component C4
Type: in vivo, Japanese patients
Settings: mean ± SD

## CC[C@H](C)[C@H](NC(=O)[C@H](CCC(N)=O)NC(=O)[C@H](Cc1c[nH]cn1)NC(=O)[C@H](C)NC(=O)[C@H](CC(C)C)NC(=O)[C@H](CCCCN)NC(=O)[C@H](CCC(N)=O)NC(=O)[C@@H](NC(=O)[C@@H](NC(=O)[C@@H]1CSSC[C@H](NC(=O)CNC(=O)[C@H](Cc2ccccc2)NC(=O)[C@H](CO)NC(=O)[C@H](CCCNC(=N)N)NC(=O)[C@H](CC(C)C)NC(=O)CNC(=O)[C@H](CCC(N)=O)NC(=O)[C@H](Cc2ccccc2)NC(=O)[C@H](CC(N)=O)NC(=O)[C@H](CC(N)=O)NC(=O)[C@H](CCSC)NC(=O)[C@H](CO)NC(=O)[C@H](CCC(N)=O)NC(=O)[C@H](CCCNC(=N)N)NC(=O)[C@@H](N)Cc2ccc(O)cc2)C(=O)N[C@@H](CCCNC(=N)N)C(=O)N[C@@H](Cc2ccccc2)C(=O)NCC(=O)N[C@@H]([C@@H](C)O)C(=O)N1)[C@@H](C)O)C(C)C)C(=O)N[C@@H](Cc1ccc(O)cc1)C(=O)N[C@@H](CCC(N)=O)C(=O)N[C@@H](Cc1ccccc1)C(=O)N[C@H](C(=O)N[C@@H](CC(=O)O)C(=O)N[C@@H](CCCCN)C(=O)N[C@@H](CC(=O)O)C(=O)N[C@@H](CCCCN)C(=O)N[C@@H](CC(=O)O)C(=O)N[C@@H](CC(N)=O)C(=O)N[C@H](C(=O)N[C@@H](C)C(=O)N1CCC[C@H]1C(=O)N[C@@H](CCCNC(=N)N)C(=O)N[C@@H](CO)C(=O)N[C@@H](CCCCN)C(=O)N[C@H](C(=O)N[C@@H](CO)C(=O)N1CCC[C@H]1C(=O)N[C@@H](CCC(N)=O)C(=O)NCC(=O)N[C@@H](Cc1ccc(O)cc1)C(N)=O)[C@@H](C)CC)C(C)C)[C@@H](C)O [Adrenomedullin]
AM 5 ng/kg/min (n = 3), 2 W, Pre 35 ± 7
  C4: 34 ± 4 mg/dL
AM 5 ng/kg/min (n = 3), 4 W, Pre 35 ± 7
  C4: 27 ± 5 mg/dL
AM 5 ng/kg/min (n = 3), 8 W, Pre 35 ± 7
  C4: 35 ± 13 mg/dL
AM 10 ng/kg/min (n = 3), 2 W, Pre 30 ± 9
  C4: 32 ± 11 mg/dL
AM 10 ng/kg/min (n = 3), 4 W, Pre 30 ± 9
  C4: 27 ± 12 mg/dL
AM 10 ng/kg/min (n = 3), 8 W, Pre 30 ± 9
  C4: 28 ± 7 mg/dL
AM 15 ng/kg/min (n = 3), 2 W, Pre 35 ± 11
  C4: 35 ± 11 mg/dL
AM 15 ng/kg/min (n = 3), 4 W, Pre 35 ± 11
  C4: 23 ± 1 mg/dL
AM 15 ng/kg/min (n = 3), 8 W, Pre 35 ± 11
  C4: 22 ± 2 mg/dL
